13 molecules from doi:10.1101/2025.03.06.641895 can be followed below.

The chains behind the UniProt entries cited, without tags or fusion partners.
UniProt Q6ZQ58: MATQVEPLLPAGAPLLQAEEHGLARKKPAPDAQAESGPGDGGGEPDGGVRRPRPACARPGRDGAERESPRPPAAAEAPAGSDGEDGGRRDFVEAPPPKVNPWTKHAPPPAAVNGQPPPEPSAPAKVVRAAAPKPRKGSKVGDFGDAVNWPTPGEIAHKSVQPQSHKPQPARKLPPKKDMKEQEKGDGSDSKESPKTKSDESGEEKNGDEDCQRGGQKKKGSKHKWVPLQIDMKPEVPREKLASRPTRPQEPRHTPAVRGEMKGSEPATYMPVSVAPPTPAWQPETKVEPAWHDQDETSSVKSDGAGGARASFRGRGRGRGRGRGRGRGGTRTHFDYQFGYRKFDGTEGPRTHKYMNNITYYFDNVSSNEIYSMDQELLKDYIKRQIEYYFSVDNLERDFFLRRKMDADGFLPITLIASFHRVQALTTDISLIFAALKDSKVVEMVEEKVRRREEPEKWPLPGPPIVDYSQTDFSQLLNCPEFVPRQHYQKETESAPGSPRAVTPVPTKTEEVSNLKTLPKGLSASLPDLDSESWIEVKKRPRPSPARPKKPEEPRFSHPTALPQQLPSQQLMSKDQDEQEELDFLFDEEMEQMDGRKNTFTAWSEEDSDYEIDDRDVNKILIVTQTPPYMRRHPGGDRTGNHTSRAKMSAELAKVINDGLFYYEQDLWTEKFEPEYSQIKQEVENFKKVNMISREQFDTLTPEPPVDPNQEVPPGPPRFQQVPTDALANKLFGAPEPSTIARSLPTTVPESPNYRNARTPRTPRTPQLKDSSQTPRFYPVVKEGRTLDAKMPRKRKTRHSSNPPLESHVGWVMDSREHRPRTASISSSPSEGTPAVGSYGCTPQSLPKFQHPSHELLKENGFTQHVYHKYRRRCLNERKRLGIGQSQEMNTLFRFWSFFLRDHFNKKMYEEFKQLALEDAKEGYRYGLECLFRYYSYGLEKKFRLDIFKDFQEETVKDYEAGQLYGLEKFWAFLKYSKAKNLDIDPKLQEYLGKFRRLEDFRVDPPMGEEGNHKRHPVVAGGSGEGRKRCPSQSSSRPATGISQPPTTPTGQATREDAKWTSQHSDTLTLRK
UniProt Q9D0R8: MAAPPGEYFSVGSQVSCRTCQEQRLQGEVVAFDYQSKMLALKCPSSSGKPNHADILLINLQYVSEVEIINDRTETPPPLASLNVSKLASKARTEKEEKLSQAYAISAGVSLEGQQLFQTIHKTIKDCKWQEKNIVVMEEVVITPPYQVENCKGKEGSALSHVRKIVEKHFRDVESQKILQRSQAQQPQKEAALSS
UniProt A2AJ72: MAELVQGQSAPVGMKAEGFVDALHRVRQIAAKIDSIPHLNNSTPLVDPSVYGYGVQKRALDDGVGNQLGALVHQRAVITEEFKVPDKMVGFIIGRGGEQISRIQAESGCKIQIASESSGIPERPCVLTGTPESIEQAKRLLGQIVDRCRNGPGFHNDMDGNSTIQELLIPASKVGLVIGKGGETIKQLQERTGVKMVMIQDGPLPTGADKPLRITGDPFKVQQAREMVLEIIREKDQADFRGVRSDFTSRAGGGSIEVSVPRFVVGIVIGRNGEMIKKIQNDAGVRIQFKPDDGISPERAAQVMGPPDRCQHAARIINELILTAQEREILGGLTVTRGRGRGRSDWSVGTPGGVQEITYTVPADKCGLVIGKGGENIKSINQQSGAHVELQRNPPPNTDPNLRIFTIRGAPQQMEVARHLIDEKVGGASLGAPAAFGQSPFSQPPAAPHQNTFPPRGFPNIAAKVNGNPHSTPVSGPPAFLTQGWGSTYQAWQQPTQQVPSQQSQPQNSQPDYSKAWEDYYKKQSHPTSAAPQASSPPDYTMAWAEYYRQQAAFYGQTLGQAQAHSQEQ

This experiment has as its target T1, Ataxin-2-like (ATXN2L) (mouse (endogenous in MEF)) (UniProt Q7TQH0).
T1 sequence: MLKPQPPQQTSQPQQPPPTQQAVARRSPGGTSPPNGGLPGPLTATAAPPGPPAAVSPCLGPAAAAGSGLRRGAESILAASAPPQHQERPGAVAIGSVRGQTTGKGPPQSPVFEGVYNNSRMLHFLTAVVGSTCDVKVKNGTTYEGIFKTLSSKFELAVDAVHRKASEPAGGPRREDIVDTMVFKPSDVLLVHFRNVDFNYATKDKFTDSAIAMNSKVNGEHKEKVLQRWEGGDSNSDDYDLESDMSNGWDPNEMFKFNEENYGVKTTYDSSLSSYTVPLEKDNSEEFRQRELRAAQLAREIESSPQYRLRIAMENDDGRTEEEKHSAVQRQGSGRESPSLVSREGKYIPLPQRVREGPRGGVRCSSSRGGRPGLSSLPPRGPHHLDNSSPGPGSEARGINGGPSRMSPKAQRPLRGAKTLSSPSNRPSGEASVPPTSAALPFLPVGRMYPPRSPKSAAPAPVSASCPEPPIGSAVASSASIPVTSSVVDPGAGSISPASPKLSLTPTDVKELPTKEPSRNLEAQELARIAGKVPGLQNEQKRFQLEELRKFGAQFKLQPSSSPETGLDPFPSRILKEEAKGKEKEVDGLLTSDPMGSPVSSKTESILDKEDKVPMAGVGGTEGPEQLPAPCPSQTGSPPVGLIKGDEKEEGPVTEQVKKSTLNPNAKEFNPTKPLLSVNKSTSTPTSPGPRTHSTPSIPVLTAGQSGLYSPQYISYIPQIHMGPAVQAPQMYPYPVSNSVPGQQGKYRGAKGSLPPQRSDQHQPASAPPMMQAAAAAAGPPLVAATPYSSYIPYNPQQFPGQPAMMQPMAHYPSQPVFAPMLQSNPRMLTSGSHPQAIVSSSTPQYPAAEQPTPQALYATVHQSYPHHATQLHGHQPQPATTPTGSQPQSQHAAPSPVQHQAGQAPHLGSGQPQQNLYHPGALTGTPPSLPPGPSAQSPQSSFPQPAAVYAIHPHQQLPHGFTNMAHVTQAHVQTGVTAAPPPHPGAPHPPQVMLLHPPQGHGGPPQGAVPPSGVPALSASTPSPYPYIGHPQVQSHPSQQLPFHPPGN
The experiment in a line: affinity purification with mass spectrometry.

These are yes or no findings as the source states them, for the method shown. Binding seen in cells or lysates may run through a third protein. These calls come from enrichment with a bait or labelling near it, and not all partners need be listed.

For “LARP1 (La Ribonucleoprotein 1 Translational Regulator) (from UniProt Q6ZQ58 1-1072)”, the binding entry was “binds”. The result for SYNE2 (from UniProt Q6ZWQ0 1-6874) reads “binds”; that for LSM12 (from UniProt Q9D0R8 1-195), “binds”; that for HNRNPK (from UniProt P61979 1-463), “binds”. As for FUBP3 (from UniProt A2AJ72 1-569), the binding result is listed as “binds”.

B1: LMOD1 (protein, UniProt Q8BVA4 1-595)
chain: MSKVAKYRRQVSEDPDIDSLLSTLSPEEMEELEKELDVVDPDGSIPVGLRQRNQTDKQPSGSFNREAMLNFCEKESKKLIQREMSVDESKQVGRKTDAKNGEEKDSDASRKAPGPRQDSDLGKEPKKGVLKKSFSRDREEADGRGGEKPKEEKVIRGIDKGRVRAAVDRKESGKDGREERAAAARKEEEKTGSVKNAGLSRDKDKKKEEVKEPSKKEEVKLTAESRNTVGRREDGRLKESSKENKKPEDEGIGSGGRDWRKEDEKVKKEENQPDKEVREESKTKAPEKQAPSCPNKPSDGQARAEEEAAPSIFDEPLEKVKNNDPEMTEVNVNNSDCITNEILVRFTEALEFNTVVKVFALANTRADDHVAFAIAIMLKANKTITSLNLDSNHITGKGILAIFRALLQNNTLTELRFHNQRHICGVKTEMEIAKLLKENTTLLKLGYHFELAGPRMTVTNLLSRNMDKQRQKRLQEQKQAQEASGEKKDRLEVPKVGALAKGSPKPSPQPSPKPAPKNSPKKAGVPAAPPPPPPPLAPPLIMENLKNSLSPATQRKMGDKVLPAQEKNSRDQLLAAIRSSNLKQLKKVEVPKLLQ
B1: the binding result is “binds”.

B2: SFPQ (protein, UniProt Q8VIJ6 1-699)
chain: MSRDRFRSRGGGGGGFHRRGGGGGRGGLHDFRSPPPGMGLNQNRGPMGPGPGGPKPPLPPPPPHQQQQQPPPQQPPPQQPPPHQQPPPHQPPHQQPPPPPQESKPVVPQGPGSAPGVSSAPPPAVSAPPANPPTTGAPPGPGPTPTPPPAVPSTAPGPPPPSTPSSGVSTTPPQTGGPPPPPAGGAGPGPKPGPGPGGPKGGKMPGGPKPGGGPGMGAPGGHPKPPHRGGGEPRGGRQHHAPYHQQHHQGPPPGGPGPRTEEKISDSEGFKANLSLLRRPGEKTYTQRCRLFVGNLPADITEDEFKRLFAKYGEPGEVFINKGKGFGFIKLESRALAEIAKAELDDTPMRGRQLRVRFATHAAALSVRNLSPYVSNELLEEAFSQFGPIERAVVIVDDRGRSTGKGIVEFASKPAARKAFERCSEGVFLLTTTPRPVIVEPLEQLDDEDGLPEKLAQKNPMYQKERETPPRFAQHGTFEYEYSQRWKSLDEMEKQQREQVEKNMKDAKDKLESEMEDAYHEHQANLLRQDLMRRQEELRRMEELHSQEMQKRKEMQLRQEEERRRREEEMMIRQREMEEQMRRQREESYSRMGYMDPRERDMRMGGGGTMNMGDPYGSGGQKFPPLGGGGGIGYEANPGVPPATMSGSMMGSDMRTERFGQGGAGPVGGQGPRGMGPGTPAGYGRGREEYEGPNKKPRF
On to B2, for which the binding entry is given as “binds”.

B3: HNRNPDL (protein, UniProt Q9Z130 1-301)
chain: MEDMNEYSNIEEFAEGSKINASKNQQDDGKMFIGGLSWDTSKKDLTEYLSRFGEVVDCTIKTDPVTGRSRGFGFVLFKDAASVDKVLELKEHKLDGKLIDPKRAKALKGKEPPKKVFVGGLSPDTSEEQIKEYFGAFGEIENIELPMDTKTNERRGFCFITYTDEEPVKKLLESRYHQIGSGKCEIKVAQPKEVYRQQQQQQKGGRGAAAGGRGGARGRGRGQGQNWNQGFNNYYDQGYGNYNSAYGGDQNYSGYGGYDYTGYNYGNYGYGQGYADYSGQQSTYGKASRGGGNHQNNYQPY
Regarding B3, the binding entry was “binds”.

B4: ZMAT3 (protein, UniProt O54836 1-290)
chain: MILLQQVWLPLPNRPSTSPPMSVAARSTRTLQLPPQKAFGQEASLPLAGEEDLAKRGEPDSALEELCKPLFCKLCNVTLNSAQQAQAHYQGKNHGKKLRNYYAANSCPPPARVSSVVAEPVATPLVPVPPQVGSCKPGGRVILATENDYCKLCDASFSSPAVAQAHYQGKNHAKRLRLAEAQSHSFSDSAEAGQRRTRKEGSEFKMVATRRNMNPVQSNSGPYFNARSRQRIPRDLAMCVTPSGQFYCSMCNVGAGEEVEFRQHLESKQHKSKVSEQRYRSEMENLGYVQ
Consider B4, for which the binding entry was “binds”.

B5: MBNL2 (protein, UniProt Q8C181 1-373)
chain: MALNVAPVRDTKWLTLEVCRQYQRGTCSRSDEECKFAHPPKSCQVENGRVIACFDSLKGRCSRENCKYLHPPTHLKTQLEINGRNNLIQQKTAAAMLAQQMQFMFPGTPLHPVPTFPVGPTIGTNAAISFAPYLAPVTPGVGLVPTEVLPTTPVIVPGSPPVTVPGSTATQKLLRTDKLEVCREFQRGNCARGETDCRFAHPADSTMIDTNDNTVTVCMDYIKGRCMREKCKYFHPPAHLQAKIKAAQHQANQAAVAAQAAAAAATVMTQSTAKALKRPLEATVDLAFPPGALHPLPKRQALEKSNGASTVFNPSVLHYQQALTSAQLQQHTAFIPTVPMMHSATSATVSAATTPATSVPFAATATANQIILK
Take B5: the binding entry is recorded as “binds”.

B6: Ataxin-2 (ATXN2) (protein, UniProt O70305 1-1285)
chain: MRSSTAAVQRPAAGDPEPRRPAGWAARRSLPRTARRGGRGGAVAYPSAGPPPRGPGAPPRGPRSPPCASDCFGSNGHGASRPGSRRLLGVCGPPRPFVVVLLALAPAATPARACPPGVRASPPRSGVSSSARPAPGCPRPACEPVYGPLTMSLKPQPQPPAPATGRKPGGGLLSSPGAAPASAAVTSASVVPAPAAPVASSSAAAGGGRPGLGRGRNSSKGLPQPTISFDGIYANVRMVHILTSVVGSKCEVQVKNGGIYEGVFKTYSPKCDLVLDAAHEKSTESSSGPKREEIMESVLFKCSDFVVVQFKDTDSSYARRDAFTDSALSAKVNGEHKEKDLEPWDAGELTASEELELENDVSNGWDPNDMFRYNEENYGVVSTYDSSLSSYTVPLERDNSEEFLKREARANQLAEEIESSAQYKARVALENDDRSEEEKYTAVQRNCSDREGHGPNTRDNKYIPPGQRNREVLSWGSGRQSSPRMGQPGPGSMPSRAASHTSDFNPNAGSDQRVVNGGVPWPSPCPSHSSRPPSRYQSGPNSLPPRAATHTRPPSRPPSRPSRPPSHPSAHGSPAPVSTMPKRMSSEGPPRMSPKAQRHPRNHRVSAGRGSMSSGLEFVSHNPPSEAAAPPVARTSPAGGTWSSVVSGVPRLSPKTHRPRSPRQSSIGNSPSGPVLASPQAGIIPAEAVSMPVPAASPTPASPASNRALTPSIEAKDSRLQDQRQNSPAGSKENVKASETSPSFSKADNKGMSPVVSEHRKQIDDLKKFKNDFRLQPSSTSESMDQLLSKNREGEKSRDLIKDKTEASAKDSFIDSSSSSSNCTSGSSKTNSPSISPSMLSNAEHKRGPEVTSQGVQTSSPACKQEKDDREEKKDTTEQVRKSTLNPNAKEFNPRSFSQPKPSTTPTSPRPQAQPSPSMVGHQQPAPVYTQPVCFAPNMMYPVPVSPGVQPLYPIPMTPMPVNQAKTYRAGKVPNMPQQRQDQHHQSTMMHPASAAGPPIVATPPAYSTQYVAYSPQQFPNQPLVQHVPHYQSQHPHVYSPVIQGNARMMAPPAHAQPGLVSSSAAQFGAHEQTHAMYACPKLPYNKETSPSFYFAISTGSLAQQYAHPNAALHPHTPHPQPSATPTGQQQSQHGGSHPAPSPVQHHQHQAAQALHLASPQQQSAIYHAGLAPTPPSMTPASNTQSPQSSFPAAQQTVFTIHPSHVQPAYTTPPHMAHVPQAHVQSGMVPSHPTAHAPMMLMTTQPPGPKAALAQSALQPIPVSTTAHFPYMTHPSVQAHHQQQL
For the molecule B6, the binding entry is listed as “binds”.

B7: nuclear poly(A) binding protein PABPN1 (protein, UniProt Q8CCS6 1-302)
chain: MAAAAAAAAAAGAAGGRGSGPGRRRHLVPGAGGEAGEGDPGGAGDYGNGLESEELEPGELLPEPEPEEEPPRPRAPPGAPGPGPGSGAPGSQEEEEEPGLVEADPGDGAIEDPELEAIKARVREMEEEAEKLKELQNEVEKQMNMSPPPGNAGPVIMSLEEKMEADARSIYVGNVDYGATAEELEAHFHGCGSVNRVTILCDKFSGHPKGFAYIEFSDKESVRTSLALDESLFRGRQIKVIPKRTNRPGISTTDRGFPRSRYRARTTNYNSSRSRFYSGFNSRPRGRIYRGRARATSWYSPY
On to B7, for which the binding entry was “binds”.

B8: G3BP2 (protein, UniProt P97379 1-482)
chain: MVMEKPSPLLVGREFVRQYYTLLNKAPEYLHRFYGRNSSYVHGGVDASGKPQEAVYGQNDIHHKVLSLNFSECHTKIRHVDAHATLSDGVVVQVMGLLSNSGQPERKFMQTFVLAPEGSVPNKFYVHNDMFRYEDEVFGDSEPELDEESEDEVEEEQEDRQPSPEPVQENANSAYYDAHPVTNGIEEPLEESSHEPEPEPESETKTEELKPQVEEKHLEELEEKSATPPPAEPASLPQEPPKAFSWASVTSKNLPPSGTVSSSGIPPHVKAPVSQPRVDAKPEVQSQPPRVREQRPRERPGFPPRGPRPGRGDMEQNDSDNRRIIRYPDSHQLFVGNLPHDIDENELKEFFMSFGNVVELRINTKGVGGKLPNFGFVVFDDSEPVQRILIAKPIMFRGEVRLNVEEKKTRAARERETRGGGDDRRDIRRNDRGPGGPRGIVGGGMMRDRDGRGPPPRGGMTQKLGSGRGTGQMEGRFTGQRR
Turning to B8, the binding entry is given as “binds”.
